# Measured values taken from PMC6098130.
# Protein sequences, listed by entry. Tags and fused reporters are not part of them.
# UniProt O08573: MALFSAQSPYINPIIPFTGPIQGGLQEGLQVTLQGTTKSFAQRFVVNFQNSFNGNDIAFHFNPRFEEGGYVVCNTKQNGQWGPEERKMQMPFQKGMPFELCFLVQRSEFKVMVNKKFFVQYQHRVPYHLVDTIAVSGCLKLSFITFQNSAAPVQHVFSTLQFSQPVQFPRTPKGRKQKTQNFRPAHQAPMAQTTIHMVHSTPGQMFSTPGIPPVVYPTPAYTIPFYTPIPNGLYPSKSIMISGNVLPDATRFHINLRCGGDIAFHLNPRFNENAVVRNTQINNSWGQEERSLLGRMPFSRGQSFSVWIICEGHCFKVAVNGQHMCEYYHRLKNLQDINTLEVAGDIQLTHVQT
# These are yes or no findings as the source states them, for the method shown. For some assays here: Binding seen in cells or lysates may run through a third protein. Some results given as binding are weak or reduced against the parent protein; the word gives no strength.
# T1: CD45 (Ptprc) (mouse (endogenous in primary B cells)) (UniProt P06800)
# T1 sequence: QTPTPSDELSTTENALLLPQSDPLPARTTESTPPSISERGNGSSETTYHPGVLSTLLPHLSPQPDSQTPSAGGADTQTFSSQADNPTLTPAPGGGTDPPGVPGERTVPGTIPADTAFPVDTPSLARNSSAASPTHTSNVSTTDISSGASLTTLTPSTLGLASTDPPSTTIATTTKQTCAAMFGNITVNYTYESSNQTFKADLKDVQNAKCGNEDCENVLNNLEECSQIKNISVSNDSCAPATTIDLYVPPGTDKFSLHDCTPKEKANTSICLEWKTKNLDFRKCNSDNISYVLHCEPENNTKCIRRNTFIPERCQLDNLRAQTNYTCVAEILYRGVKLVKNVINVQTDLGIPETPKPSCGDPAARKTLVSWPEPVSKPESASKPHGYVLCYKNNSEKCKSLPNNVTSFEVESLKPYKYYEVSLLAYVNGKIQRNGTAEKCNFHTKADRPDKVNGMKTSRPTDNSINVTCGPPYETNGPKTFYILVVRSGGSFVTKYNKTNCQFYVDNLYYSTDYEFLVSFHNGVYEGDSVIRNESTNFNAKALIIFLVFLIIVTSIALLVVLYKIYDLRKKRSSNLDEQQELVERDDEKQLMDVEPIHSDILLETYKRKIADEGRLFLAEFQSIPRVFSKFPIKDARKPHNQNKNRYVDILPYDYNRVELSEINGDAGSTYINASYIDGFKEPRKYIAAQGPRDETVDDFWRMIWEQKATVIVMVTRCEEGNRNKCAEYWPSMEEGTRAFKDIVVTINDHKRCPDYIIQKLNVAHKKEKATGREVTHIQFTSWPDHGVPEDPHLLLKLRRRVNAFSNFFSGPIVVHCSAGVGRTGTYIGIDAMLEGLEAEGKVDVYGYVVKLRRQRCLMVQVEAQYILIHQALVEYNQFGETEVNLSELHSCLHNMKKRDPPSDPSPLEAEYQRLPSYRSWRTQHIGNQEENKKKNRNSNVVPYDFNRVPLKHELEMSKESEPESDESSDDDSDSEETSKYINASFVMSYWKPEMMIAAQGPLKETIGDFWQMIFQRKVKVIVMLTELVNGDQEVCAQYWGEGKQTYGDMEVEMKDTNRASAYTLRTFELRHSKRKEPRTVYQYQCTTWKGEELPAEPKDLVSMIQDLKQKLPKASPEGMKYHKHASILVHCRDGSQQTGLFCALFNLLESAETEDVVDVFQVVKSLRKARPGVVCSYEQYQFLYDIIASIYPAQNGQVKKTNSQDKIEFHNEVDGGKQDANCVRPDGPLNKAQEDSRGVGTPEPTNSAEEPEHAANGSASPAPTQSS
# How the values were obtained:
# [1] = biological target: T1, CD45 (Ptprc) (mouse (endogenous in primary B cells)); assay: far-Western; 25 µg whole-cell RIPA lysate resolved by 10% SDS-PAGE, transferred to PVDF, renatured in guanidine-HCl 6-0 M; 5 µg/mL FLAG-tagged rGal9 overnight at 4 °C; detected with anti-FLAG M2; reference blots for CD45 and IgM; only the binder purified
# [2] = biological target: FLAG-tagged recombinant galectin-9 (UniProt O08573); assay: pull-down; 10 µg FLAG-tagged rGal9 on anti-FLAG beads; RIPA lysate (stringent lysis) of B cells from Gal9-KO mice, 3 h at 4 °C, with or without 50 mM D-lactose; elution with 200 mM D-lactose; immunoblot for CD45 and IgM; only the target purified
binding [1],binding [2],Molecule
binds,,FLAG-tagged recombinant galectin-9 (from UniProt O08573 1-353)
,binds,"CD45 (Ptprc) (protein, UniProt P06800 26-1293) QTPTPSDELSTTENALLLPQSDPLPARTTESTPPSISERGNGSSETTYHPGVLSTLLPHLSPQPDSQTPSAGGADTQTFSSQADNPTLTPAPGGGTDPPGVPGERTVPGTIPADTAFPVDTPSLARNSSAASPTHTSNVSTTDISSGASLTTLTPSTLGLASTDPPSTTIATTTKQTCAAMFGNITVNYTYESSNQTFKADLKDVQNAKCGNEDCENVLNNLEECSQIKNISVSNDSCAPATTIDLYVPPGTDKFSLHDCTPKEKANTSICLEWKTKNLDFRKCNSDNISYVLHCEPENNTKCIRRNTFIPERCQLDNLRAQTNYTCVAEILYRGVKLVKNVINVQTDLGIPETPKPSCGDPAARKTLVSWPEPVSKPESASKPHGYVLCYKNNSEKCKSLPNNVTSFEVESLKPYKYYEVSLLAYVNGKIQRNGTAEKCNFHTKADRPDKVNGMKTSRPTDNSINVTCGPPYETNGPKTFYILVVRSGGSFVTKYNKTNCQFYVDNLYYSTDYEFLVSFHNGVYEGDSVIRNESTNFNAKALIIFLVFLIIVTSIALLVVLYKIYDLRKKRSSNLDEQQELVERDDEKQLMDVEPIHSDILLETYKRKIADEGRLFLAEFQSIPRVFSKFPIKDARKPHNQNKNRYVDILPYDYNRVELSEINGDAGSTYINASYIDGFKEPRKYIAAQGPRDETVDDFWRMIWEQKATVIVMVTRCEEGNRNKCAEYWPSMEEGTRAFKDIVVTINDHKRCPDYIIQKLNVAHKKEKATGREVTHIQFTSWPDHGVPEDPHLLLKLRRRVNAFSNFFSGPIVVHCSAGVGRTGTYIGIDAMLEGLEAEGKVDVYGYVVKLRRQRCLMVQVEAQYILIHQALVEYNQFGETEVNLSELHSCLHNMKKRDPPSDPSPLEAEYQRLPSYRSWRTQHIGNQEENKKKNRNSNVVPYDFNRVPLKHELEMSKESEPESDESSDDDSDSEETSKYINASFVMSYWKPEMMIAAQGPLKETIGDFWQMIFQRKVKVIVMLTELVNGDQEVCAQYWGEGKQTYGDMEVEMKDTNRASAYTLRTFELRHSKRKEPRTVYQYQCTTWKGEELPAEPKDLVSMIQDLKQKLPKASPEGMKYHKHASILVHCRDGSQQTGLFCALFNLLESAETEDVVDVFQVVKSLRKARPGVVCSYEQYQFLYDIIASIYPAQNGQVKKTNSQDKIEFHNEVDGGKQDANCVRPDGPLNKAQEDSRGVGTPEPTNSAEEPEHAANGSASPAPTQSS"
